Taken from: PubChem BioAssay AID1259308 (NCATS, 2017)

Assay: 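Genes whose loss raises luciferase production in HEK293 cells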 (primary screen)
Cell system: human HEK293 embryonic kidney cells stably expressing firefly luciferase (HEK-CMV-Luc2-Hygro)
Reagent: single siRNA against human genes, 0.8 pmol siRNA per well
Duration: 72 h
Measurement: 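Reporter luminescence and viable-cell signal on separate replicate plates, given as percent of non-targeting control and median/MAD z-scores, plus per-cell luciferase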
Direction: total luciferase, z-score and total luciferase, % of control: higher = more reporter protein produced; luciferase per cell, z-score: higher = more reporter output per viable cell; viable cells, % of control: higher = more viable cells
Rule for the call: 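An siRNA counts as active if its total luciferase robust z-score exceeds 3; genes with two or more such siRNAs out of three were retested with fresh siRNAs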
Meaning of the calls: active = raised luciferase; inactive = no rise
Shown is a random part of about 59,000 reagents tested. In the full data, about 1,510 (2.6%) are marked active. 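Calls use total luciferase alone and ignore viability, so some active siRNAs may act by altering cell number.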 The numbers tell different reagents against one gene apart.

| gene knocked down | reagent | total luciferase, z-score | total luciferase, % of control | luciferase per cell, z-score | viable cells, % of control | Outcome |
| --- | --- | --- | --- | --- | --- | --- |
| RAD51C (RAD51 paralog C) | 1 | 0.351 | 88.9 | 1.04 | 75.5 | inactive |
| RAD51C (RAD51 paralog C) | 2 | 2.19 | 125 | 1.36 | 97.9 | inactive |
| RAD51C (RAD51 paralog C) | 3 | 0.0278 | 82.4 | 0.828 | 74.1 | inactive |
| OR4C3 (olfactory receptor family 4 subfamily C member 3) | 1 | -1.9 | 44 | -2.34 | 91 | inactive |
| OR4C3 (olfactory receptor family 4 subfamily C member 3) | 2 | 2.65 | 134 | 1.86 | 92 | inactive |
| OR4C3 (olfactory receptor family 4 subfamily C member 3) | 3 | 2.02 | 122 | 1.25 | 98.1 | inactive |
| PRR11 (proline rich 11) | 1 | 0.924 | 100 | 0.852 | 89.5 | inactive |
| PRR11 (proline rich 11) | 2 | -0.317 | 75.6 | 0.00153 | 84.4 | inactive |
| PRR11 (proline rich 11) | 3 | -0.692 | 68.1 | -0.598 | 89.1 | inactive |
| TDP2 (tyrosyl-DNA phosphodiesterase 2) | 1 | -0.105 | 79.8 | -0.581 | 104 | inactive |
| TDP2 (tyrosyl-DNA phosphodiesterase 2) | 2 | -0.384 | 74.3 | 0.157 | 79.6 | inactive |
| TDP2 (tyrosyl-DNA phosphodiesterase 2) | 3 | -0.268 | 76.6 | 0.781 | 69.7 | inactive |
| CD2AP (CD2 associated protein) | 1 | 0.0922 | 83.7 | -0.49 | 106 | inactive |
| CD2AP (CD2 associated protein) | 2 | -1.43 | 53.4 | -1.25 | 83 | inactive |
| CD2AP (CD2 associated protein) | 3 | -1.09 | 60.1 | -1.04 | 88.3 | inactive |

Look-ups from the entries so far.
Under “viable cells, % of control”, RAD51C (RAD51 paralog C) #1 is entered as 75.5
For “luciferase per cell, z-score”, TDP2 (tyrosyl-DNA phosphodiesterase 2) #1 is entered as -0.581

Next records follow:
| gene knocked down | reagent | total luciferase, z-score | total luciferase, % of control | luciferase per cell, z-score | viable cells, % of control | Outcome |
| --- | --- | --- | --- | --- | --- | --- |
| HOXB9 (homeobox B9) | 1 | -0.657 | 68.8 | -0.445 | 86.5 | inactive |
| HOXB9 (homeobox B9) | 2 | 0.0389 | 82.7 | 0.0154 | 92 | inactive |
| HOXB9 (homeobox B9) | 3 | -1.06 | 60.8 | -0.0163 | 68.2 | inactive |
| FSTL3 (follistatin like 3) | 1 | 0.94 | 101 | 1.05 | 85.2 | inactive |
| FSTL3 (follistatin like 3) | 2 | -0.69 | 68.2 | -1.05 | 100 | inactive |
| FSTL3 (follistatin like 3) | 3 | 2.77 | 137 | 1.24 | 110 | inactive |
| TRIM14 (tripartite motif containing 14) | 1 | 3.42 | 150 | 2.6 | 84.6 | active |
| TRIM14 (tripartite motif containing 14) | 2 | 0.133 | 84.5 | -0.244 | 101 | inactive |
| TRIM14 (tripartite motif containing 14) | 3 | -0.0632 | 80.6 | -0.0692 | 91.8 | inactive |
